Laboratory results from the supplement of paper PMC11060735.
“And” between values parts separate entries of the source, which are not always exact repeats. Identical values can stand only once. Counter-ions that a name gives are not always drawn. ± gives the standard deviation of the averaged measurements. Whole data set: some 1,800 compounds, median “GFP- (p16Ink4a-) cell count relative to negative-control wells” near 0.99, cut for the lowest 2% near 0.5. This is one part of the list.

Test system: mouse p16Ink4a+/- lung fibroblasts (INKBRITE, bleomycin-injured)
Experiment: GFP- (p16Ink4a-) cell count relative to negative-control wells (fold of vehicle); higher = more p16Ink4a- cells surviving
Details: 1 µM; 3 days

SMILES	GFP-
COc1cc(Nc2c(C#N)cnc3cc(OCCCN4CCN(C)CC4)c(OC)cc23)c(Cl)cc1Cl [Bosutinib]	0.893
CCC(C)(C)c1ccc(CC(C)CN2C[C@@H](C)O[C@@H](C)C2)cc1 (some centres not stated) [Amorolfine]	1.06
CS(=O)(=O)CCNCc1ccc(-c2ccc3ncnc(Nc4ccc(OCc5cccc(F)c5)c(Cl)c4)c3c2)o1 [Lapatinib]	0.966
COC(c1ccccc1)(c1ccccc1)[C@H](Oc1nc(C)cc(C)n1)C(=O)O [Ambrisentan]	0.89
N#CC1(c2ccc(NC(=O)c3cccnc3NCc3ccncc3)cc2)CCCC1 [Apatinib]	0.961
O=c1c(-c2ccc(O)cc2)coc2cc(O)ccc12 [Daidzein]	1.04
O=C(Nc1ncc(SCCN2CCCC2)s1)[C@]1(c2ccc(S(=O)(=O)C3CC3)cc2)C[C@H]1C1CCCCC1	0.887
O=S(=O)(O)c1cc(O)ccc1O [Ethamsylate]	0.995
O=C(CSc1nc2c(c(=O)n1-c1ccccc1)SCC2)Nc1ccc(-c2ccccc2)cn1	0.987
CN[C@@H]1[C@H](O[C@H]2[C@H](O[C@H]3[C@H](O)[C@@H](O)[C@@H](N=C(N)N)[C@@H](O)[C@@H]3N=C(N)N)O[C@@H](C)[C@@]2(O)C=O)O[C@H](CO)[C@H](O)[C@H]1O [Streptomycin sulfate]	1.2
CC(C)C[C@H](NC(=O)[C@@H]1O[C@H]1C(=O)O)C(=O)NCCCCN=C(N)N	0.915
NS(=O)(=O)c1cc2c(cc1Cl)NC(C(Cl)Cl)NS2(=O)=O (configuration not stated) [Trichlormethiazide]	1.03
C[C@@H]1CC(=O)NN=C1c1ccc(NN=C(C#N)C#N)cc1 [Levosimendan]	1.03
O=C(/C=C/c1ccccc1)NC(NC(=S)Nc1cccc2cccnc12)C(Cl)(Cl)Cl (configuration not stated) [Salubrinal]	1.09
CCCCOc1ccc(OCCCN2CCOCC2)cc1 [Pramocaine]	1.06
Cc1cc(NS(=O)(=O)c2ccc(N)cc2)no1 [Sulfamethoxazole]	0.967
CC(/C=C1\SC(=S)N(CC(=O)O)C1=O)=C\c1ccccc1 [Epalrestat]	0.978
COc1ccc(-c2cc(=O)c3c(O)cc(O[C@@H]4O[C@H](CO[C@@H]5O[C@@H](C)[C@H](O)[C@@H](O)[C@H]5O)[C@@H](O)[C@H](O)[C@H]4O)cc3o2)cc1O [Diosmin]	0.88
O=C(c1ccc(F)cc1)C1CCN(CCn2c(=O)[nH]c3ccccc3c2=O)CC1 [Ketanserin Tartrate]	0.924
CCN(CC)CCOC(=O)C(c1ccccc1)c1ccccc1 [Adiphenine Hydrochloride]	1.18
CC1(C)[C@@H](O[C@H]2O[C@H](C(=O)O)[C@@H](O)[C@H](O)[C@H]2O[C@@H]2O[C@H](C(=O)O)[C@@H](O)[C@H](O)[C@H]2O)CC[C@]2(C)[C@H]3C(=O)C=C4[C@@H]5C[C@@](C)(C(=O)O)CC[C@]5(C)CC[C@@]4(C)[C@]3(C)CC[C@@H]12 [Glycyrrhizin]	0.86 and 1.01
O=C(O)[C@]1(Cc2cccc(Nc3nccs3)n2)CC[C@@H](Oc2cccc(Cl)c2F)CC1	0.836 ± 0.086
C[C@H]1C[C@@H]2[C@H]([C@@H](O)C[C@@]3(C)[C@H]2CC[C@]3(O)C(=O)CO)[C@@]2(C)C=CC(=O)C=C12 [Methylprednisolone]	0.847
Cc1nc(C#Cc2ccnc(Cl)c2)c(C)n1-c1ccc(OC(F)(F)F)cc1	1.02
Cc1nc(Nc2ncc(C(=O)Nc3c(C)cccc3Cl)s2)cc(N2CCN(CCO)CC2)n1 [Dasatinib]	0.662
O=S(=O)(O)CCSSCCS(=O)(=O)O [Dimesna]	1.05

SMILES	GFP-
N#C[C@@H]1CCCN1C(=O)CNC12CC3CC(CC(O)(C3)C1)C2 [Vildagliptin]	1.04
CCCS(=O)(=O)Nc1ccc(F)c(C(=O)c2c[nH]c3ncc(Cl)cc23)c1F	0.94
C[C@@H]1C(=O)O[C@H]2CC34[C@H]5C[C@@H](C(C)(C)C)C36[C@@H](OC(=O)[C@@H]6O)O[C@@]4(C(=O)O5)[C@]21O (some centres not stated) [Ginkgolide A]	1.01
COc1ccc(-c2ccc3cc(C(=O)O)ccc3c2)cc1C12CC3CC(CC(C3)C1)C2 [Adapalene]	1.05
Cc1ncc(-c2ccnc(Nc3ccc(S(C)(=O)=O)cc3)n2)n1C(C)C	0.878
O=C(Nc1c[nH]nc1-c1nc2cc(CN3CCOCC3)ccc2[nH]1)NC1CC1	0.627 ± 0.12
CCN(CC)C(=O)[C@]1(c2ccccc2)C[C@@H]1CN [Milnacipran]	1
Cc1cccc(-c2nn3c(c2-c2ccnc4ccc(C(N)=O)cc24)CCC3)n1	1.25
N#C/C(=C1/SC[C@@H](c2ccc(Cl)cc2Cl)S1)n1ccnc1 [Luliconazole]	1.03
CNCc1cc(-c2ccccc2F)n(S(=O)(=O)c2cccnc2)c1	0.899
Cc1nc(-c2ccc(OCC(C)C)c(C#N)c2)sc1C(=O)O [Febuxostat]	0.877
Cn1c(=O)cc(N2CCC[C@@H](N)C2)n(Cc2ccccc2C#N)c1=O [Alogliptin]	0.943
CC(C)N(CC[C@H](c1ccccc1)c1cc(CO)ccc1O)C(C)C [5-hydroxymethyl Tolterodine]	0.955
Nc1ccccc1NC(=O)c1ccc(CNC(=O)OCc2cccnc2)cc1 [Entinostat]	0.641 ± 0.022
CN(C)CCC[C@@]1(c2ccc(F)cc2)OCc2cc(C#N)ccc21 [Citalopram]	0.97
O=C(Nc1ccc(S(=O)(=O)Nc2ccccc2Cl)c(Cl)c1)c1ccccn1	1.12
CCc1c2c(nc3ccc(O)cc13)-c1cc3c(c(=O)n1C2)COC(=O)[C@]3(O)CC	0.749
CCCc1nc2c(C)cc(-c3nc4ccccc4n3C)cc2n1Cc1ccc(-c2ccccc2C(=O)O)cc1 [Telmisartan]	1.04
C=C1C(n2cnc3c(O)nc(N)nc32)C[C@H](O)[C@H]1CO (some centres not stated) [Entecavir Hydrate]	0.958
Clc1ccc(C(c2ccccc2Cl)C(Cl)Cl)cc1 (configuration not stated) [Mitotane]	1.14
CCCNCC(O)COc1ccccc1C(=O)CCc1ccccc1 (configuration not stated) [Propafenone]	1.07
CCCN(CCC)CCc1cccc2c1CC(=O)N2 [Ropinirole]	1
CC(C)c1ccc(NC(=O)Cn2cnc3c2c(=O)n(C)c(=O)n3C)cc1	0.98
CNC(=O)c1ccccc1Sc1ccc2c(/C=C/c3ccccn3)[nH]nc2c1 [Axitinib]	0.863
C=CC/N=C1\C(=O)C=C2NC(=O)/C(C)=C/C=C\[C@H](OC)[C@@H](OC(N)=O)/C(C)=C/[C@H](C)[C@@H](O)[C@@H](OC)C[C@H](C)CC1=C2O [Tanespimycin]	0.728
CCCC(CCC)C(=O)O [Valproic Acid]	0.982 and 1.05

SMILES	GFP-
Nc1nc(Cl)nc2c1ncn2[C@@H]1O[C@H](CO)[C@@H](O)[C@@H]1F [Clofarabine]	1.02
CNC(=O)Nc1ccc(-c2nc(N3CC4CCC(C3)O4)c3cnn(C4CCC5(CC4)OCCO5)c3n2)cc1	0.566
CCn1cc(C(=O)O)c(=O)c2cc(F)c(N3CCN(C)CC3)cc21 [Pefloxacin]	0.947
CCOC(=O)Nc1cc(-c2ccc(C)c(NS(C)(=O)=O)c2)nn2c(C)nnc12 [Bromosporine]	0.936 ± 0.036
CC(C)[C@H](C(=O)Nc1ccc(C(=O)NO)cc1)c1ccccc1	0.563 ± 0.035
O=C1NC(=O)C(c2ccccc2[N+](=O)[O-])=C1Nc1ccc(O)c(Cl)c1	1.13
CCN(CCCc1ccccc1)CCCc1ccccc1 [Alverine]	1.03
COc1ccc(C(=O)Nc2sc3c(c2C(N)=O)CCCC3)cc1OC	1.02
C=C1CC[C@H](O)C/C1=C/C=C1\CCC[C@]2(C)[C@@H]([C@H](C)CCCC(C)(C)O)CC[C@@H]12 [Calcidiol]	1.2
Cc1c(N(C)C)c(=O)n(-c2ccccc2)n1C [Aminophenazone]	0.979
Clc1ccc(Nc2nnc(Cc3ccncc3)c3ccccc23)cc1 [Vatalanib]	0.918
C=CC(=O)N1CCCC(n2nc(-c3ccc(Oc4ccccc4)cc3)c3c(N)ncnc32)C1 (configuration not stated) [Ibrutinib]	0.678
CS(=O)(=O)c1cccc(CNc2nc(Nc3ccc4c(c3)CCC(=O)N4)ncc2C(F)(F)F)c1	0.745
CC(C)[C@@H](C)/C=C/[C@@H](C)[C@@H]1CC[C@H]2C3=CC=C4C[C@@H](O)CC[C@]4(C)[C@@H]3CC[C@@]21C [Ergosterol]	0.969
CC1(C)CCC[C@]2(C)[C@H]3CC(=O)O[C@]3(C)CC[C@@H]12 [Sclareolide]	1.01
CC1(C)O[C@@H]2C[C@H]3[C@@H]4CCC5=CC(=O)CC[C@]5(C)[C@@]4(F)[C@@H](O)C[C@]3(C)[C@]2(C(=O)CCl)O1 [Halcinonide]	1.02
C#CCN[C@@H]1CCc2ccccc21 [Rasagiline]	1.02
Cc1ccccc1-n1c(Cn2nc(-c3cccc(O)c3)c3c(N)ncnc32)nc2cccc(C)c2c1=O	0.646
CC1=C(CC(=O)O)c2cc(F)ccc2/C1=C\c1ccc(S(C)=O)cc1 (configuration not stated) [Sulindac]	1.07
NC(=O)N1c2ccccc2CC(=O)c2ccccc21 [Oxcarbazepine, Trileptal]	1.06
[K] [Potassium Iodide]	0.867
COC(=O)CCc1ccc(OCC(O)CNC(C)C)cc1 (configuration not stated) [Esmolol, Esmolol Hydrochloride]	1
NCCS [Cysteamine]	0.915
C[C@]12C=CC(=O)C=C1CC[C@H]1[C@@H]3C[C@@H](O)[C@](O)(C(=O)CO)[C@@]3(C)C[C@H](O)[C@@]12F [Triamcinolone]	0.986
CO/C(O)=C1\C(C)=NC(C)=C(C(=O)O[C@@H]2CCCN(Cc3ccccc3)C2)[C@@H]1c1cccc([N+](=O)[O-])c1 [Benidipine]	1.11
